Laboratory results reported in PMC7102948.
The exact form of at least one protein or probe is not confirmed. A weaker result is weaker than the reference pair of the same experiment. At least one verdict was read from the data and is not stated in words by the source. Where a protein sequence is shown, tags need not be part of it.

Experiments:
6xHis-dsRBD12 = biological target: T1, 6xHis-dsRBD12 (UniProt O04492); assay: EMSA; settings: 5 mM Mg2+, did not bind efficiently; 83 mM Tris pH 8 (printed 'Tris pH 8, 83 mM'), 100 mM NaCl, 66 mM KCl, 5 mM MgCl2, 5 mM DTT, 25 C, 30 min; 4% TBE gel run cold; recombinant protein; protein details: N-terminal 6xHis; label: 32P 5'-end
T1 sequence (looked up, limits assumed): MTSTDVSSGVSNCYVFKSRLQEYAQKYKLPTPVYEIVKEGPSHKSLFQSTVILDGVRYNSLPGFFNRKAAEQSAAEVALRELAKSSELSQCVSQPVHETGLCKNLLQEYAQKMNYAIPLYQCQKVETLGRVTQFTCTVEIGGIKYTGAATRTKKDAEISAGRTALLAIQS

[1] = biological target: T2, GST-AtHYL1-6xHis (Arabidopsis thaliana Col-0) (UniProt O04492); assay: EMSA; settings: 5 mM Mg2+; 83 mM Tris pH 8 (printed 'Tris pH 8, 83 mM'), 100 mM NaCl, 66 mM KCl, 5 mM MgCl2, 5 mM DTT, 25 C, 30 min; 4% TBE gel run cold; recombinant protein; protein details: N-terminal GST, C-terminal 6xHis; label: 32P 5'-end
T2 sequence (looked up, limits assumed): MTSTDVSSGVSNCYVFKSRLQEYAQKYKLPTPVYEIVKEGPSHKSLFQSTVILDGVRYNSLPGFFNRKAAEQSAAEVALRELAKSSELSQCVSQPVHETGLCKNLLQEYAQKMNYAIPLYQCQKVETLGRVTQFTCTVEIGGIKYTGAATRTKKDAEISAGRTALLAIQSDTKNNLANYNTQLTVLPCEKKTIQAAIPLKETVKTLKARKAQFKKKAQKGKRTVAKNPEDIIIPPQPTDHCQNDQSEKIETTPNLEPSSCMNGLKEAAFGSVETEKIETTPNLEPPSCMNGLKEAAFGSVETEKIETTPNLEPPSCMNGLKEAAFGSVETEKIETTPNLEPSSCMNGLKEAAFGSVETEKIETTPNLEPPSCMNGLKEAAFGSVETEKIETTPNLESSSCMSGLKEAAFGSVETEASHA

| Sequence | binding result (6xHis-dsRBD12) | binding result [1] |
| --- | --- | --- |
| UUAUUAAUUUCGGCCCCGGCG / CGCCGGGCCCGAAAUUAAUAA [amiRscr52 duplex] | binds more weakly | binds more weakly |
| UCGAAUAAGAUACUAUACGUU / AACGUAUACUAUCUUAUUCGA [amiR28 duplex] | binds more weakly | binds more weakly |
| UCGAACUAGGUCUCAGUGCUC / GAGCACUGUGACCUAGUUCGA [amiR52 duplex] | binds more weakly | binds |
| UCGAACAGGGCGCCAGUGCCC / GGGCACUGCCGCCCUGUUCGA [amiR72 duplex (71% GC)] | binds more weakly | binds more weakly |
